Data published in the supplement of paper PMC7411640.
Counter-ions that a name gives are not always drawn. This is one part of the list. This data set is noisy: repeats of one test often differ as much as different tests do.

Test system: MDA-MB-468
Test: phospho-S6 immunofluorescence (DAPI-normalised), per-plate z-score; higher = higher phospho-S6 signal (less pathway suppression)
Details: compound 1 µM; co-treatment: lapatinib 1 uM; 24 h
Description: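 GPCR-targeted compound library (MedChemExpress HY-L006) tested on MDA-MB-468 PTEN-null TNBC cells in 384-well plates at 0.1, 1 or 10 uM, combined with vehicle, GDC0941 450 nM or lapatinib 1 uM, for 24 h. Phospho-S6 (S240/244) immunofluorescence normalised to DAPI and expressed as a per-plate z-score; values are the mean of biological triplicates.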

Structure (SMILES)	phospho-S6 immunofluorescence (z-score)
O=C(NC(Cc1cc(=O)[nH]c2ccccc12)C(=O)O)c1ccc(Cl)cc1 (configuration not stated) [Rebamipide]	0.32
Cc1nc(C(=O)N2CCC[C@H]2Cc2nnc(-c3ccccc3)o2)c(-c2ccccc2F)s1	-0.34
Cc1cc(C(C)(C)C)cc(C)c1CC1=NCCN1 [Xylometazoline (hydrochloride)]	-0.26
C[C@]12CCC(=O)C=C1CC[C@@H]1[C@@H]2[C@@H](O)C[C@@]2(C)[C@H]1CC[C@]2(O)C(=O)CO [Hydrocortisone]	1.3
CN(C)CCOC(c1ccccc1)c1ccccc1.Cn1c(=O)c2[nH]c(Cl)nc2n(C)c1=O [Dimenhydrinate]	-1.06
CN(C)CCC=C1c2ccccc2C=Cc2ccccc21 [Cyclobenzaprine (hydrochloride)]	-0.29
O=C(O)CC1CCC2(CC1)CCN(c1cc(OC(F)(F)F)ccc1Cl)CC2	1.05
O=C1CC2(CCCC2)CC(=O)N1CCCCN1CCN(c2ncccn2)CC1 [Buspirone (hydrochloride)]	1.81
COc1ccccc1Oc1c(NS(=O)(=O)c2ccc(C)cn2)nc(-c2ccncc2)nc1OC [Avosentan]	-0.15
Cc1ccc(-c2n[nH]c3c2C(c2cccc(O)c2)N(c2ccc(C(=O)O)cc2)C3=O)cc1 (configuration not stated)	-0.3
CCOc1nc2cccc(C(=O)O)c2n1Cc1ccc(-c2ccccc2-c2nnn[nH]2)cc1 [Candesartan]	0.32
NC(N)=Nc1nc(CSCC/C(N)=N/S(N)(=O)=O)cs1 [Famotidine]	0.38
CC(C)(Cc1ccc2ccccc2c1)NC[C@@H](O)COc1cccc(Cl)c1C#N [NPS-2143 (hydrochloride)]	-17.6
Cc1cc2c(s1)Nc1ccccc1N=C2N1CCN(C)CC1 [Olanzapine]	0.69
CCOC(=O)N1CCC(NCCNC(=O)c2ccccc2C)CC1	-0.3
CN1[C@@H]2CC[C@H]1C[C@@H](OC(=O)c1c[nH]c3ccccc13)C2 [Tropisetron (Hydrochloride)]	0.64

In the list so far, 2 contain a carbonyl joined to an NH by a bond outside any ring:
Structure (SMILES)	phospho-S6 immunofluorescence (z-score)
O=C(NC(Cc1cc(=O)[nH]c2ccccc12)C(=O)O)c1ccc(Cl)cc1 (configuration not stated) [Rebamipide]	0.32
CCOC(=O)N1CCC(NCCNC(=O)c2ccccc2C)CC1	-0.3

Following part:

Structure (SMILES)	phospho-S6 immunofluorescence (z-score)
CCc1cc2c(cc1CC)CC(NC[C@H](O)c1ccc(O)c3[nH]c(=O)ccc13)C2 [Indacaterol (maleate)]	1.63
O=c1[nH]c2ccccc2n1CCN1CCN(c2cccc(C(F)(F)F)c2)CC1 [Flibanserin]	0.53
C[N+](C)(C)CCOC(N)=O [Carbamoylcholine (chloride)]	-0.16
CC(C)(C)NCC(O)c1cc(O)cc(O)c1 (configuration not stated) [Terbutaline (sulfate)]	2.83
COc1nc(C)cnc1NS(=O)(=O)c1cccnc1-c1ccc(-c2nnco2)cc1 [Zibotentan]	0.01
O=C(CN1C(=O)C2(CCCC2)NC[C@H]1c1cc(F)cc(F)c1)Nc1ccc2c(c1)C[C@@]1(C2)C(=O)Nc2ncccc21 [MK-3207 (Hydrochloride)]	-1.42
CCN(CC)CCCC(C)Nc1nc(C)cc(Nc2ccc3nc(C)cc(N)c3c2)n1 (configuration not stated)	0.33
CCC(=O)NC[C@@H]1C[C@H]1c1cccc2c1CCO2 [Tasimelteon]	0.79
CCOc1nc2cccc(C(=O)OC(C)OC(=O)OC3CCCCC3)c2n1Cc1ccc(-c2ccccc2-c2nn[nH]n2)cc1 (configuration not stated) [Candesartan (Cilexetil)]	0.14
Clc1ccc(Cn2c(CN3CCCC3)nc3ccccc32)cc1 [Clemizole (hydrochloride)]	0.96
CN(C)CCN1C(=O)c2cccc3cc(NC(N)=O)cc(c23)C1=O	2.62
CC(C)C[C@H](NC(=O)[C@@H](COC(C)(C)C)NC(=O)[C@H](Cc1ccc(O)cc1)NC(=O)[C@H](CO)NC(=O)[C@H](Cc1c[nH]c2ccccc12)NC(=O)[C@H](Cc1cnc[nH]1)NC(=O)[C@@H]1CCC(=O)N1)C(=O)N[C@@H](CCCNC(=N)N)C(=O)N1CCC[C@H]1C(=O)NNC(N)=O [Goserelin (acetate)]	0.17
CN1Cc2c(N)cccc2C(c2ccccc2)C1 (configuration not stated) [Nomifensine (maleate)]	-0.98
O=c1cc(CN2CCOCC2)occ1OCCCCCSc1ccnc2cc(C(F)(F)F)ccc12	0.25
COc1cccc(CCc2ccccc2OCC(CN(C)C)OC(=O)CCC(=O)O)c1 (configuration not stated) [Sarpogrelate (hydrochloride)]	0.18
COc1cccc(-c2c(C)n(Cc3c(F)cccc3C(F)(F)F)c(=O)n(C[C@H](NCCCC(=O)O)c3ccccc3)c2=O)c1F [Elagolix]	0.76
